{"source": "PubChem BioAssay AID2685", "about": "(National Center for Advancing Translational Sciences (NCATS), 2010)", "assay": "qHTS Assay for Lipid Storage Modulators in Drosophila S3 Cells;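 as to cell number change: cells counted by Cell Tracker Red CMTPX staining in the red channel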", "settings": "BODIPY lipid droplet fluorescence, 18-24 h; for cell number change: measured here: cell count max response, cells fed with added oleic acid", "outline": "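Drosophila S3 cells loaded with oleic acid (400 uM, as added) and compounds at several concentrations; lipid droplets imaged by 488-nm laser-scanning cytometry, 500–530 nm intensity and object ratio to cell channel. Percent activity normalized to 20 uM Triacsin C.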", "key": {"[1]": {"settings": "measured here: cell number channel AC50, cells fed with added oleic acid"}, "[2]": {"settings": "measured here: lipid fluorescence (Fed channel) AC50, cells fed with added oleic acid"}}, "note": "The list shows a part of the results. These are further read-outs of the screen, such as a control signal, another cell line or another target. No call is given for them. Most of these compounds were active or inconclusive in the main read-out, so they are no random draw. The note in brackets gives the kind of curve behind each potency; many fits are weak.", "data": [{"smiles": "CCCn1c(N2CCN(S(=O)(=O)Cc3ccccc3)CC2)nc2ccccc21", "values": [{"measurement": "cell number change", "result": 31.9, "unit": "%"}, {"measurement": "AC50", "setting": "[1]", "result": "0.731 µM [rising, partial curve]"}]}, {"smiles": "Cc1cc(C(F)(F)F)nc(SCC(=O)Nc2nccs2)n1", "values": [{"measurement": "cell number change", "result": 16.6, "unit": "%"}, {"measurement": "AC50", "setting": "[2]", "result": "0.184 µM [rising, full curve, poor fit]"}]}, {"smiles": "NC(=O)c1c(NC(=O)CSc2nnc(-c3ccco3)n2-c2ccccc2)sc2c1CCC2", "values": [{"measurement": "AC50", "setting": "[1]", "result": "0.461 µM [rising, single point]"}, {"measurement": "AC50", "setting": "[2]", "result": "9.2 µM [rising, partial curve]"}]}, {"smiles": "Cc1cccc2cc(CN(CC3CCCO3)S(=O)(=O)c3ccccc3)c(=O)[nH]c12", "note": "(stereo not drawn)", "values": [{"measurement": "cell number change", "result": 15.6, "unit": "%"}, {"measurement": "AC50", "setting": "[2]", "result": "29.1 µM [rising, single point]"}]}, {"smiles": "CC1CCCC(NC(=O)CSc2nnc(C(F)(F)F)n2C)C1C", "note": "(stereo not drawn)", "values": [{"measurement": "cell number change", "result": 0.645, "unit": "%"}, {"measurement": "AC50", "setting": "[2]", "result": "4.11 µM [rising, single point]"}]}, {"smiles": "CCOc1ccccc1N1CCN(c2nc(N)c(C#N)c(CC#N)c2C#N)CC1", "values": [{"measurement": "AC50", "setting": "[1]", "result": "0.259 µM [rising, full curve]"}, {"measurement": "AC50", "setting": "[2]", "result": "0.82 µM [rising, full curve]"}]}, {"smiles": "O=C(/C=C/Nc1ccccc1Br)c1ccccn1", "values": [{"measurement": "cell number change", "result": -31.6, "unit": "%"}, {"measurement": "AC50", "setting": "[1]", "result": "4.11 µM [falling, full curve, poor fit]"}]}, {"smiles": "O=C(NCCN1CCCCC1)c1ccc(Oc2cc(Cl)cc(Cl)c2)o1", "values": [{"measurement": "cell number change", "result": -32.7, "unit": "%"}, {"measurement": "AC50", "setting": "[1]", "result": "18.4 µM [falling, partial curve, poor fit]"}, {"measurement": "AC50", "setting": "[2]", "result": "16.4 µM [falling, partial curve]"}]}, {"smiles": "Cc1ccc(S(=O)(=O)NC(=O)Nc2cc(C)no2)cc1", "values": [{"measurement": "cell number change", "result": -28.5, "unit": "%"}, {"measurement": "AC50", "setting": "[1]", "result": "0.206 µM [falling, full curve, poor fit]"}, {"measurement": "AC50", "setting": "[2]", "result": "20.6 µM [falling, single point]"}]}, {"smiles": "CCCn1nc(C(=O)N2CCc3ccccc32)c2ccccc2c1=O", "values": [{"measurement": "cell number change", "result": -12.8, "unit": "%"}, {"measurement": "AC50", "setting": "[2]", "result": "6.51 µM [falling, full curve]"}]}, {"smiles": "COc1ccc(C(=O)OCc2nc(N)nc(Nc3ccccc3C)n2)cc1OC", "values": [{"measurement": "cell number change", "result": 9.6, "unit": "%"}, {"measurement": "AC50", "setting": "[2]", "result": "0.0184 µM [rising, single point]"}]}, {"smiles": "Cc1n[nH]c(C)c1CCN(C)C(=O)C1CCC(=O)N(CC2CCCCC2)C1", "note": "(stereo not drawn)", "values": [{"measurement": "cell number change", "result": 15.3, "unit": "%"}, {"measurement": "AC50", "setting": "[2]", "result": "18.4 µM [rising, single point]"}]}, {"smiles": "N#Cc1ccc(S(=O)(=O)N2CCCN(c3nc4ccc(Cl)cc4s3)CC2)cc1", "values": [{"measurement": "cell number change", "result": 9.78, "unit": "%"}, {"measurement": "AC50", "setting": "[2]", "result": "6.51 µM [falling, single point]"}]}, {"smiles": "Cc1ccc(S(=O)(=O)Oc2ccc(/C=N/NC(=O)c3ccncc3)cc2)cc1", "values": [{"measurement": "cell number change", "result": 35.5, "unit": "%"}, {"measurement": "AC50", "setting": "[2]", "result": "0.562 µM [rising, single point]"}]}, {"smiles": "CCN(CC)CCCN1C(=O)C(O)=C(C(=O)c2cc3ccccc3o2)C1c1ccccn1", "note": "(stereo not drawn)", "values": [{"measurement": "cell number change", "result": 56, "unit": "%"}, {"measurement": "AC50", "setting": "[1]", "result": "29.1 µM [rising, single point]"}, {"measurement": "AC50", "setting": "[2]", "result": "29.1 µM [rising, single point]"}]}]}
